The whole screen tested about 1,200 compounds, of which about 15 (1%) were called active. Not shown: some 7% with an inconclusive outcome. The call rests on the fitted dose curve; in most records, active means well fitted activation curve with a large enough effect; inconclusive means small, poorly fitted or top-dose-only effect; inactive means flat fitted curve, though single readings scatter. This is one part of the list.
The molecules below were run against Beta-2 adrenergic receptor (Homo sapiens) (UniProt P07550) (assay: qHTS assay of beta-arrestin-biased ligands of beta2-adrenergic receptor: Hit Validation). Conditions: cell-based beta-arrestin recruitment to beta2AR; Potency: activation; series mostly up to 46.1 µM; activation: at the top concentration.
Description: The concept of biased agonism is an emerging concept of molecular pharmacology which proposes that seven transmembrane receptors (7TMRs) or G protein-coupled receptors (GPCRs), exist in multiple signaling conformations and complexes and that ligands (either agonists or antagonists) can induce signaling biased responses for distinct signal transduction cascades.
Furthermore, accumulating evidence over the last decade has drawn attention to a novel function of beta-arrestins as signal transducers that scaffold various signaling molecules upon activation of 7TMRs. […] This beta-arrestin-biased signaling presumably leads to distinct physiological outcomes from those by G protein activation.
Additionally, the active receptor conformations which […] on this beta-arrestin signaling are likely different from those activating G protein signaling
The goal of this screening project will be to discover and optimize novel beta-arrestin-biased ligands for beta2-AR signaling. A luminescent cell-based assay for beta2-AR-mediated agonism, known as the Tango assay, has been validated in which ligand binding of a recombinant beta2-AR and subsequent recruitment of a recombinant beta-arrestin lead to the release of the transcriptional activator tTA, which upregulates transcription of a tTA-responsive luciferase gene.
NIH Molecular Libraries Probe Production Network [MLPCN]
NIH Chemical Genomics Center [NCGC]
PI: Bryan Roth (UNC) and Bob Lefkowitz (Duke)
NCGC Assay Protocol Summary:
Tango cells were dispensed into white, solid, tissue-culture-treated 1536-well plates at 1500 cells/well in DMEM, containing 1% fetal bovine serum (FBS). Then, 23 nL of compounds or DMSO were delivered to each well using a pin tool. Plates were incubated at 37 degrees C, 5% CO2 for 18 hr. Then 2.5 uL luminescent substrate mix (in-house prepared: 150 mM Tris-Cl, pH 7.6, 3 mM MgCl2, 1% Triton X-100, 5 mM DTT, 0.5 mM CoA, 0.15 mM ATP, 0.44 mM D-luciferin, final concentrations) was added to each well. Plates were then incubated for 15 minutes at room temperature, and subsequently measured on a ViewLux plate reader for luminescent signal using a clear filter with a 10 second exposure and 2x binning. The %Activity was determined from the corrected luminescence values.
Concentration-response curves were fitted to the signals arising from the resulting luminescence. The concentration-effect curves were then classified based on curve quality (r2), response magnitude and degree of measured activity, and compounds were subsequently categorized based on their curve class.
Keywords: biased agonism, beta2-AR, beta-arrestin, GPCR, 7TMR, Tango, luminescence, MLSMR, MLPCN, NIH Roadmap, qHTS, NCGC
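Further: plate controls were DMSO for no effect and maximal isoproterenol or metaproterenol response for full effect.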

SMILES	activation
O=[N+]([O-])c1ccc(C[n+]2cccc3ccc4cccnc4c32)cc1	inactive: -1.22%
Cc1ccc(Cn2nnc3c(=O)n(CC(=O)NCC4CCCO4)cnc32)cc1 (stereo not drawn)	inactive: -1.39%
CCc1cc2c(=O)c(-c3ccc4c(c3)OCCO4)coc2c(CN2CCCCC2C)c1O (stereo not drawn)	inactive: -0.531%
COc1ccc2c(C)nc(Nc3nc(C)c(C)c(=O)[nH]3)nc2c1	inactive: 0.271%
O=C(NC(=S)N1CCN(Cc2ccccc2)CC1)c1ccco1	inactive: -1.8%
Cc1ccc(NC(=O)COC(=O)CN2C(=O)COc3ccccc32)cc1	inactive: -3.23%
CN1CCN(C(c2ccccn2)c2cc(Cl)c3cccnc3c2O)CC1 (stereo not drawn)	inactive: -2.19%
COc1ccc(NC(=O)c2cc(S(=O)(=O)N3CCc4ccccc43)cn2C)c(OC)c1	inactive: -3.34%
CCOc1ccccc1N=Nc1c(C)[nH]n(C(N)=S)c1=O	inactive: -1.78%
Nc1c(Cl)ncnc1N/N=C/c1ccc2ccccc2n1	inactive: 0.824%
CC1CCCN(C(=O)Cn2nnc(-c3ccc(F)cc3)n2)C1 (stereo not drawn)	inactive: -0.544%
COCCNC(=S)N/N=C(\C)c1ccc(Cl)c(Cl)c1	inactive: -1.6%
CCCCOc1ccc(C(O)(CCC)CCN2CCOCC2)cc1 (stereo not drawn)	inactive: -1.83%
CC[n+]1c(/C=C/N(C)c2ccccc2)oc2ccc(Cl)cc21	inactive: -2.68%
OC(C#Cc1ccccn1)c1cccs1 (stereo not drawn)	inactive: -0.841%
Cc1cccc(NC(=S)NNC(=O)CCn2cc(C)cn2)c1	inactive: -0.779%
COc1cc([N+](=O)[O-])c2nccnc2c1	inactive: -3.5%
O=C(Oc1cccc2cccnc12)c1ccc(N2C(=O)C3C4CCC(C4)C3C2=O)cc1 (stereo not drawn)	inactive: -7.3%
CCOc1ccc(/C=N/NC(=O)CN2CCCCC2)cc1OCC	inactive: -1.64%
COc1cc(/C=N/NC(=O)c2cncc(Br)c2)cc([N+](=O)[O-])c1O	inactive: 1.55%

SMILES	activation
O=C(O)CCc1ccc(-c2cccs2)o1	inactive: -10.8%
CN1CCN(C(=S)NC(=O)c2ccc(Br)cc2)CC1	inactive: -0.998%
O=C(NCC1CCCO1)c1ccc(CS(=O)(=O)c2ccc(Br)cc2)o1 (stereo not drawn)	inactive: -2.45%
S=C(NN=C1CCN(Cc2ccccc2)CC1)NC1CCCCC1	inactive: -2.86%
CNC(=S)N/N=C(\C)c1ccc(N2CCOCC2)cc1	inactive: -1.84%
O=C1CC(c2ccco2)CC2=C1C(c1ccccc1)n1nc(C(F)(F)F)nc1N2 (stereo not drawn)	inactive: 0.0396%
S=C(NCc1ccco1)Nc1ccccn1	inactive: -2.14%
COC(=O)c1c(/N=C/N(C)C)sc2c1CCN(c1ncc(C(F)(F)F)cc1Cl)C2	inactive: -3.04%
COc1cccc(/C=N/NC(=S)Nc2cccnc2)c1	inactive: -3.27%
Cc1cccc(NC(=S)NC(=O)c2cccs2)n1	inactive: -2.07%
NC(=S)N/N=C1\CCOc2ccc(F)cc21	inactive: -1.4%
COc1ccc(Oc2nc(-c3ccncc3)nc3ccccc23)cc1	inactive: -2.03%
Cc1cccc(NC(=O)CSc2nnnn2-c2cccnc2)c1	inactive: -1.67%
Cc1ccc2c(c1)[C@H]1[C@H](CO2)[C@H](c2ccccc2)[C@]2(C)C(=O)Nc3ccccc3C(=O)N12	inactive: -1.64%
CCOc1ccccc1CNc1ccc(O)cc1	inactive: -1.41%
Oc1[nH]c2ccc(Br)cc2c1N=NC(=S)NCC1CCCO1 (stereo not drawn)	inactive: -2.12%
C=CCNC(=S)N/N=C(\C)c1cccc(OC)c1	inactive: -1.3%
COc1ccc(NC(=S)N2CCc3ccccc3C2)cc1	inactive: -0.466%
CN1CCN(Cc2cc(COCc3ccccc3)c3cccnc3c2O)CC1	inactive: -0.456%
CCOC(=O)C1(O)CC(C)=NN1C(=O)c1cccc(Cl)c1 (stereo not drawn)	inactive: -1.46%

3 records picked at random from the list so far, as already listed:
SMILES	activation
CNC(=S)N/N=C(\C)c1ccc(N2CCOCC2)cc1	inactive: -1.84%
Cc1cccc(NC(=O)CSc2nnnn2-c2cccnc2)c1	inactive: -1.67%
Oc1[nH]c2ccc(Br)cc2c1N=NC(=S)NCC1CCCO1 (stereo not drawn)	inactive: -2.12%

Continuation:

SMILES	activation
CCc1cc2c(SCC(=O)Nc3ccc(Cl)cn3)ncnc2s1	inactive: -1.91%
Cc1ccc(/C=N/n2cc(-c3ccccc3)[nH]c2=S)s1	inactive: 4.44%
O=C1CCCC2=C1C(c1ccc3c(c1)OCO3)c1c([nH]n(-c3ccccc3)c1=O)N2 (stereo not drawn)	inactive: -0.803%
COc1cccc(NC(=S)N/N=C2\CC(C)(C)Oc3ccc(O)cc32)c1	inactive: -2.24%
CCN(CC)C(=S)SCC(=O)c1ccc(F)cc1	inactive: -1.73%
CCCCOC(=O)c1cc(Cl)c(O)c(OC)c1	inactive: -2.62%
CN(CC(=O)Nc1ccccc1Cl)C(=O)COC(=O)c1nc(Cl)c(Cl)c(Cl)c1Cl	inactive: -4.27%
CNC(=S)N/N=C1\CC(c2ccccc2)Oc2ccccc21 (stereo not drawn)	inactive: -2.26%
C=CCNC(=S)N/N=C(\C)c1cccnc1	inactive: -2.35%
Cc1ccc(NC(=O)C(Nc2cccc(C)c2)c2ccccc2)cc1 (stereo not drawn)	inactive: 0.413%
CCOc1ccc(/C=N/n2cc(-c3ccccc3)[nH]c2=S)cc1	inactive: -4.93%
CCCC(=O)N(c1ccc(F)cc1)C1C=CS(=O)(=O)C1 (stereo not drawn)	inactive: -3.49%
COc1ccc(/C=C/c2ccc3cccc(O)c3n2)c(OC)c1OC	inactive: 6.27%
Cc1ccc(SCC(=O)NC(=O)NCc2ccccc2)c(C)c1	inactive: -0.256%
CN(C)CCn1c2c(c(SCC(=O)NCc3ccccc3)nc1=O)CCCC2	inactive: -5.86%
Fc1ccc(NC(=S)N/N=C/c2ccc(F)c(F)c2)cc1	inactive: -2.99%
CCCCn1c(N)c(N(CCC(C)C)C(=O)CSc2nncn2-c2ccccc2)c(=O)[nH]c1=O	inactive: -0.737%
COc1ccccc1NC(=O)COC(=O)c1ccc2ccccc2n1	inactive: -2.91%

Source: PubChem BioAssay AID588463 (National Center for Advancing Translational Sciences (NCATS), 2011)
